In the assay the test system is L1210 leukemia ip in BDF1 mice, survival T/C. The assay can be described thus: NCI In Vivo Anticancer Drug Screen. Data for tumor model L1210 Leukemia (intraperitoneal) in B6D2F1 (BDF1) mice. The following applies: T/C endpoint: mean survival time, higher T/C = longer survival.
Where [1] appears, read: dose: 25.0 mg/kg/injection, schedule: Q04DX003 (ip), vehicle: saline.
The mark [2] stands for this setting: dose: 100.0 mg/kg/injection, schedule: Q04DX003 (ip), vehicle: saline.
Setting [3] is: dose: 400.0 mg/kg/injection, schedule: Q01DX009 (ip), vehicle: saline.
Setting [4] is: dose: 200.0 mg/kg/injection, schedule: Q04DX003 (ip), vehicle: Klucel (hydroxypropylcellulose) (HPC).
The mark [5] stands for this setting: dose: 400.0 mg/kg/injection, schedule: Q04DX003 (ip), vehicle: Klucel (hydroxypropylcellulose) (HPC).
Setting [6] is: dose: 400.0 mg/kg/injection, schedule: Q04DX003 (ip), vehicle: saline.
Setting [7] is: dose: 100.0 mg/kg/injection, schedule: Q04DX003 (ip), vehicle: saline with Tween-80.
Setting [8] is: dose: 400.0 mg/kg/injection, schedule: Q04DX003 (ip), vehicle: saline with Tween-80.

The structures appear in SMILES notation. The list is a part of this screen's results and no random one: it gathers tests that were run many times, whatever their T/C, doses with no T/C, and many T/C values between a quarter and a half above the control. Further doses and runs are listed elsewhere. T/C is the treated group as % of the vehicle group. Some entries give survivors of the animals treated and no T/C: the source holds a T/C of zero for them, seemingly a mark for toxic or unscored doses. Some survivor counts are full or nearly so, which does not show that the dose was tolerated: survival well below the control is almost never listed, so the zero probably covers shortened survival too. Survivors were counted at the toxicity check, usually on the fifth day, unless a day is given; later deaths do not show. Schedules are NCI's codes, taken here to give the interval after Q, in days (D) or hours (H), and the number of doses after X. Some entries were tested several times; their values stand side by side, smallest first. Where survival is the endpoint, the PubChem record calls one and a half times the control and up active, and a quarter to a half above the control has no call in these data; cut-offs in other NCI protocols can differ. Additions like (4×) stand for listed records that agree. Some T/C values carry the count of animals alive at the toxicity check (mostly the fifth day); where none is given, no animal had died by that day.

For `CC(=O)c1ccc2c(c1)N(CCCN1CCN(CCO)CC1)c1ccccc1S2`, the survivor count is, setting by setting: (dose: 6.25 mg/kg/injection, schedule: Q01DX009 (ip), vehicle: Klucel (hydroxypropylcellulose) (HPC)) 4 of 6; (dose: 18.5 mg/kg/injection, schedule: Q01DX009 (ip), vehicle: Klucel (hydroxypropylcellulose) (HPC)) 4 of 6; (dose: 25.0 mg/kg/injection, schedule: Q01DX009 (ip), vehicle: Klucel (hydroxypropylcellulose) (HPC)) 3 of 6; under setting [1], 2 of 4; (dose: 50.0 mg/kg/injection, schedule: Q01DX009 (ip), vehicle: Klucel (hydroxypropylcellulose) (HPC)) 5 of 6; (dose: 50.0 mg/kg/injection, schedule: Q01DX009 (ip), vehicle: saline) 1 of 6 and 5 of 6. In addition, the survivor count is recorded as 2 of 4 (dose: 50.0 mg/kg/injection, schedule: Q04DX003 (ip), vehicle: saline); 0 of 6 (dose: 100.0 mg/kg/injection, schedule: Q01DX009 (ip), vehicle: saline); 0 of 4 under setting [2]; 0 of 6 (dose: 200.0 mg/kg/injection, schedule: Q01DX009 (ip), vehicle: saline); 0 of 6 under setting [3]. The T/C by setting is: (dose: 6.25 mg/kg/injection, schedule: Q01DX009 (ip), vehicle: saline) 125 % of control; (dose: 12.5 mg/kg/injection, schedule: Q01DX009 (ip), vehicle: saline) 127 (2×) and 147 % of control; (dose: 25.0 mg/kg/injection, schedule: Q01DX009 (ip), vehicle: saline) 133 % of control.
As to `COC1OC(CCl)C(Cl)C(OS(=O)(=O)c2ccc(C)cc2)C1OS(=O)(=O)c1ccc(C)cc1` (stereo not drawn), for the setting “dose: 200.0 mg/kg/injection, schedule: Q04DX002 (ip), vehicle: Klucel (hydroxypropylcellulose) (HPC)”, the survivor count is listed as 3 of 3.
For `CCCCCCCCCCCCCOc1ccc(Sc2ccc([N+](=O)[O-])cc2)cc1`, the survivor count by setting is: (dose: 100.0 mg/kg/injection, schedule: Q04DX003 (ip), vehicle: Klucel (hydroxypropylcellulose) (HPC)) 6 of 6; under setting [4], 6 of 6.
For the compound `CCCCS(=O)CC(O)(c1ccccc1)c1ccccc1` (stereo not drawn), the survivor count (dose: 400.0 mg/kg/injection, schedule: Q03DX002 (ip), vehicle: saline with Tween-80) was 1 of 3.
For the compound `Cc1c(C)c(CN)c(C)c(C)c1CN`, the survivor count (dose: 400.0 mg/kg/injection, schedule: Q01DX009 (ip), vehicle: Klucel (hydroxypropylcellulose) (HPC)) is 0 of 6 and the survivor count under setting [5] is 2 of 6.
Turning to `C=CCNc1ccnc(SC)n1`, the survivor count (dose: 400.0 mg/kg/injection, schedule: Q01DX001 (ip), vehicle: gum acacia) was 3 of 6.
As to `COC(=O)C1CCC(NC(=O)NCCCl)CC1` (stereo not drawn), the survivor count (dose: 400.0 mg/kg/injection, schedule: Q01DX001 (ip), vehicle: Klucel (hydroxypropylcellulose) (HPC)) was 3 of 5.
On to `C=CC(=O)Nc1ccc(Cl)cc1`, for which the survivor count under setting [4] is listed as 2 of 6 and the survivor count under setting [5] is reported as 1 of 6.
Consider `CC/C(=C(\CC)c1ccc(OC)cc1)c1ccc(OC)cc1`, for which the survivor count reads like this: under setting [2], 6 of 6; under setting [6], 6 of 6.
In the case of `Cc1c(CC=C(c2ccccc2)c2ccccc2)cccc1C[N+](C)(C)C`, the survivor count was 2 of 4 (dose: 50.0 mg/kg/injection, schedule: Q01DX001 (ip), vehicle: carboxymethylcellulose (CMC)); 1 of 4 (dose: 200.0 mg/kg/injection, schedule: Q01DX001 (ip), vehicle: carboxymethylcellulose (CMC)); 0 of 4 (dose: 400.0 mg/kg/injection, schedule: Q01DX001 (ip), vehicle: carboxymethylcellulose (CMC)).
Consider `O=C(c1ccccc1)C1C(c2ccccc2)OP(c2ccccc2)(c2ccccc2)(c2ccccc2)C1c1ccccc1` (stereo not drawn), for which the survivor count is, setting by setting: (dose: 6.25 mg/kg/injection, schedule: Q01DX009 (ip), vehicle: saline with Tween-80) 3 of 6; (dose: 12.5 mg/kg/injection, schedule: Q04DX003 (ip), vehicle: saline with Tween-80) 6 of 6; (dose: 25.0 mg/kg/injection, schedule: Q01DX009 (ip), vehicle: saline with Tween-80) 1 of 6.
Turning to `C[N+](C)(N)Cc1ccc(C[N+](C)(C)N)cc1`, the survivor count (dose: 400.0 mg/kg/injection, schedule: Q04DX002 (ip), vehicle: saline) is reported as 1 of 3.
In the case of `COC1=C(Br)C(=O)C(OC)=C(Br)C1=O`, the survivor count under setting [7] is recorded as 3 of 6; the survivor count (dose: 200.0 mg/kg/injection, schedule: Q04DX003 (ip), vehicle: saline with Tween-80) is on record as 0 of 6; the survivor count under setting [8] is given as 0 of 6.
In the case of `Cc1cccc[c]1[Sb](=[O])([OH])[OH]`, the survivor count (dose: 100.0 mg/kg/injection, schedule: Q01DX001 (ip), vehicle: saline) is 1 of 4; the survivor count (dose: 200.0 mg/kg/injection, schedule: Q01DX001 (ip), vehicle: saline) is reported as 1 of 4; the survivor count (dose: 400.0 mg/kg/injection, schedule: Q01DX001 (ip), vehicle: saline) was 1 of 4.
On to `C[C@@H]1CC[C@@]2(NC1)O[C@H]1C[C@H]3[C@@H]4CC=C5C[C@@H](O)CC[C@]5(C)[C@H]4CC[C@]3(C)[C@H]1[C@@H]2C`, for which, under setting [5], the survivor count is 6 of 6.
Consider `Nc1ccc2c(c1)Cc1ccccc1-2`, for which the survivor count under setting [8] was 0 of 3.
As to `O=C1NC(c2cccc3ccccc23)Nc2ccc(Cl)cc21` (stereo not drawn), the T/C reads like this: (dose: 100.0 mg/kg/injection, schedule: Q01DX009 (ip), vehicle: Klucel (hydroxypropylcellulose) (HPC)) 125 [5 of 6 alive] and 131 % of control; (dose: 150.0 mg/kg/injection, schedule: Q01DX009 (ip), vehicle: Klucel (hydroxypropylcellulose) (HPC)) 125 % of control.
As to `CN(C)c1ccc(/C=N/NC(N)=S)nc1`, the T/C runs as follows: (dose: 8.0 mg/kg/injection, schedule: Q03HX032 (ip), vehicle: saline with Tween-80) 131 % of control; (dose: 12.0 mg/kg/injection, schedule: Q03HX032 (ip), vehicle: saline with Tween-80) 128 % of control; (dose: 27.0 mg/kg/injection, schedule: Q03HX032 (ip), vehicle: saline with Tween-80) 131 % of control; (dose: 29.0 mg/kg/injection, schedule: Q04DX003 (ip), vehicle: saline with Tween-80) 129 % of control; under setting [7], 129 and 146 % of control. Besides, the survivor count runs as follows: (dose: 150.0 mg/kg/injection, schedule: Q04DX003 (ip), vehicle: saline with Tween-80) 4 of 6; under setting [8], 1 of 6.
For the compound `O=C(O)CC(NC(=O)OCc1ccccc1)c1ccc(Cl)cc1` (stereo not drawn), the survivor count (dose: 400.0 mg/kg/injection, schedule: Q01DX009 (ip), vehicle: saline with Tween-80) is 0 of 3 and 2 of 6.
For the compound `CN(C)C1=NC(=O)C(c2ccccc2)O1` (stereo not drawn), the survivor count is, setting by setting: under setting [1], 4 of 4; under setting [2], 3 of 4; under setting [3], 1 of 6.
In the case of `CCN(CC)CCN(C(=O)Cc1cccc2ccccc12)c1ccccc1N`, the survivor count is, setting by setting: (dose: 150.0 mg/kg/injection, schedule: Q01DX001 (ip), vehicle: acid diluted with saline) 3 of 6; (dose: 300.0 mg/kg/injection, schedule: Q01DX001 (ip), vehicle: acid diluted with saline) 0 of 6.
As for `CC(c1ccccc1)[As](C)(=O)O` (stereo not drawn), the survivor count is, setting by setting: under setting [2], 6 of 6; (dose: 200.0 mg/kg/injection, schedule: Q04DX003 (ip), vehicle: saline) 4 of 6; under setting [6], 0 of 6.
On to `CCCCCCCCCCNC(C1=C(O)c2ccccc2C(=O)C1=O)c1ccccc1` (stereo not drawn), for which the survivor count was 3 of 3 (dose: 50.0 mg/kg/injection, schedule: Q01DX001 (ip), vehicle: saline with Tween-80); 3 of 3 (dose: 100.0 mg/kg/injection, schedule: Q01DX001 (ip), vehicle: saline with Tween-80); 3 of 3 (dose: 200.0 mg/kg/injection, schedule: Q01DX001 (ip), vehicle: saline with Tween-80).
Take `Cc1ccc(SCCN)cc1`: the survivor count (dose: 300.0 mg/kg/injection, schedule: Q01DX001 (ip), vehicle: saline) is given as 0 of 6.

For the origin of these results see PubChem BioAssay AID248 (DTP/NCI, 2004).
